The record followed here is publication doi:10.1101/2025.08.21.671216.

The chains behind the UniProt entries cited, without tags or fusion partners.
UniProt B9EJS2: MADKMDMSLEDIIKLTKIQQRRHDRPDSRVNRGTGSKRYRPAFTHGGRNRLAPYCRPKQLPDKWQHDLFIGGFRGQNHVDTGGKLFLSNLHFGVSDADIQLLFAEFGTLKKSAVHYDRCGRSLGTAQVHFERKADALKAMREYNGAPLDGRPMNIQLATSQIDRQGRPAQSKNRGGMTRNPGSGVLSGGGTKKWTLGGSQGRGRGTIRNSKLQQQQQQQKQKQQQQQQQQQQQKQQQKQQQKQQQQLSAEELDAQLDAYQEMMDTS

No constants are given. Whether binding was seen depends on the method and setting. In cells and extracts the contact can be indirect. Some results given as binding are weak or reduced against the parent protein; the word gives no strength. Tags and fused reporters may be left off the sequences shown.

The assay concerns the target T1, HA tag-fused NXF1 (UniProt Q99JX7).
T1 sequence: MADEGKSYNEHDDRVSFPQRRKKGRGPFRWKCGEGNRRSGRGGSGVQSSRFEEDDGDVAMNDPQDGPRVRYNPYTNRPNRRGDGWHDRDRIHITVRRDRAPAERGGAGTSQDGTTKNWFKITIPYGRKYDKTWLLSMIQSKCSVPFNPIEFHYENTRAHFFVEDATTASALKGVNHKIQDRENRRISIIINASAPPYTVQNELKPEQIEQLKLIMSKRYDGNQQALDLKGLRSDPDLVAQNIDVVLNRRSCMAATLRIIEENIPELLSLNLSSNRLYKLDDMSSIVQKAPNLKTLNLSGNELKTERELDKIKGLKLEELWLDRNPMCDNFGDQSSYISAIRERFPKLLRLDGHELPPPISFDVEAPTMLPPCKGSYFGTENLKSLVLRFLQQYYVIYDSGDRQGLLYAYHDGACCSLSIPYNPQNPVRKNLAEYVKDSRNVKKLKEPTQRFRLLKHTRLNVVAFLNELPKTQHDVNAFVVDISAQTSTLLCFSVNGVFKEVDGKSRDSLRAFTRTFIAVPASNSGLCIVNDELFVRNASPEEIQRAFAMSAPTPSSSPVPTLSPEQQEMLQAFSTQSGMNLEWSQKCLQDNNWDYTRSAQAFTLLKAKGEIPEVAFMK
As to the kind of experiment: co-IP.

With “3FLAG-fused REFEE (GM4340) (from UniProt B9EJS2 1-266)”, the binding result is given as “binds”.
